System: rice gene expression (WRKY45 gene and other genes)
Test: Comprehensive analysis of rice gene expression (RNA-seq) in regenerated plants
Parameters: species or system Oryza sativa cv. Nipponbare

In the case of `[Cl-].[Na+]` [NaCl, sodium chloride], the “number of genes with significantly changed expression” value (plants regenerated from callus treated with 200 mM NaCl vs control plant) is reported as 1,038 and the “number of genes significantly increased in expression” value (plants regenerated from callus treated with 200 mM NaCl, FDR<0.05) is reported as 753.
